Data reported in patent US20160377635A1, “Measurement of Oxytocin and Vasopressin” (Martin-Protean LLC, priority 2013, published 2016).

Experiment: plasma oxytocin and vasopressin by LC-MS/MS, with or without redox perturbation
Parameters: species or system human

Structure (SMILES): NC(=O)CC[C@@H]1NC(=O)[C@H](Cc2ccccc2)NC(=O)[C@H](Cc2ccc(O)cc2)NC(=O)[C@@H](N)CSSC[C@@H](C(=O)N2CCC[C@H]2C(=O)N[C@@H](CCCN=C(N)N)C(=O)NCC(N)=O)NC(=O)[C@H](CC(N)=O)NC1=O [vasopressin]
- endogenous level in whole plasma by LC-MS/MS (plasma not perturbed): undetectable
- endogenous level in whole plasma by LC-MS/MS (redox perturbed sample): nM levels
